Laboratory results taken from PubChem BioAssay AID602313 (National Center for Advancing Translational Sciences (NCATS), 2012).
Among all 390,000 compounds or so, about 760 (0.19%) were called active. The inconclusive results got no clear call from the source; some entries with a clear call stand among them for comparison. The call rests on the fitted dose curve; in most records, active means well fitted inhibition curve with a large enough effect; inconclusive means small, poorly fitted or top-dose-only effect; inactive means flat fitted curve, though single readings scatter. Potencies beside an inconclusive call are fits to weak or partial responses and may not hold up.
Potency means the concentration at half of the fitted maximal effect.

Assay: qHTS for Inhibitors of Vif-A3F Interactions: qHTS; further: nearly all actives have a fitted effect of over 65% in size
Conditions: HeLa A3F-eYFP + Vif (tagged APOBEC3F with the HIV-1 protein that degrades it), YFP fluorescence increase; series mostly up to 46.1 µM
Procedure, shortened: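 HeLa cells stably expressing Vif plus C-terminally eYFP-tagged A3F were seeded, incubated overnight at 37 deg C, dosed with compound, incubated overnight again at 37 deg C. Yellow fluorescence (Ex 488/Em 500-530) reported blocked Vif-mediated A3F-eYFP degradation.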
With `Cc1c(C(=O)N2CCCCC2)c(S(=O)(=O)NCc2ccc(Cl)cc2)c(C)n1C` the Potency was “inactive”.
With `COc1cccc(NC(=S)N/N=C2\CC(C)(C)Oc3ccc(O)cc32)c1` the Potency was inconclusive: 5.62 µM [inhibitor, single point].
In the case of `c1ccc(C2Oc3ccccc3C3CC(c4cccs4)=NN32)cc1` (centres undefined), the Potency is reported as inconclusive: 22.4 µM [inhibitor, single point].
In the case of `COc1ccc(S(=O)(=O)Nc2ccc3oc(C)c(C(C)=O)c3c2)cc1`, the Potency is reported as inconclusive: 2 µM [inhibitor, partial curve, poor fit].
For `CCCCNC(=S)Nc1ccc(SC(F)F)cc1`, the Potency was inconclusive: 35.5 µM [inhibitor, single point].
With `CCCCN(C(=O)CSCc1ccc(C)cc1)c1c(N)n(Cc2ccccc2)c(=O)[nH]c1=O` the Potency was inconclusive: 8.91 µM [inhibitor, partial curve, poor fit].
In the case of `COc1cccc(-c2nnc3sc(-c4ccccc4)nn23)c1`, the Potency is reported as “inactive”.
In the case of `O=c1ccc2cc3c4c(c2o1)CCCN4CCC3`, the Potency is reported as inconclusive: 22.4 µM [inhibitor, partial curve, poor fit].
With `N#C/C(=C\c1cn(Cc2ccccc2)c2ccccc12)C(=O)NCc1ccco1` the Potency was inconclusive: 25.1 µM [inhibitor, single point].
In the case of `S=C(Nc1ccc(Nc2ccccc2)cc1)Nc1ccccn1`, the Potency is reported as “inactive”.
With `N#Cc1c(-c2ccc(F)cc2)c(-c2ccc(F)cc2)nn(CCO)c1=O` the Potency was “inactive”.
With `COc1cccc(-c2cc(=O)c3cc(NC(=O)c4ccc(N(C)C)cc4)ccc3[nH]2)c1` the Potency was inconclusive: 28.2 µM [inhibitor, partial curve, poor fit].
For `Cc1cc(N2CCOCC2)nc(SCc2c(Cl)cccc2Cl)n1`, the Potency was inconclusive: 35.5 µM [inhibitor, single point].
In the case of `O=c1oc2c3c4c(cc2s1)CCCN4CCC3`, the Potency is reported as “inactive”.
For `CN(Cc1ccc(F)cc1)Cc1nc(-c2cnccn2)no1`, the Potency was inconclusive: 0.562 µM [inhibitor, full curve, poor fit].
For `COc1ccc(NS(=O)(=O)c2ccc(O)c(C(=O)OCC(=O)NC(C)C3CC4CCC3C4)c2)cc1` (centres undefined), the Potency was “inactive”.
With `Cc1cc(Cl)ccc1OCC(=O)OC(C)C(=O)N(C)C` (centres undefined) the Potency was inconclusive: 3.55 µM [inhibitor, single point].
With `O=C(NC(=S)N1CCCCCC1)c1ccc(Cl)cc1Cl` the Potency was inconclusive: 31.6 µM [inhibitor, single point].
With `CCN(CC)c1ccc(-c2sc(Nc3ccccc3)n[n+]2-c2ccc(F)cc2)cc1` the Potency was inconclusive: 35.5 µM [inhibitor, single point].
For `O=C1CCN(c2ncccc2[N+](=O)[O-])CC1`, the Potency was inconclusive: 15.8 µM [inhibitor, single point].
With `CCOC(=O)CSc1nc2sc3c(c2c(=O)n1-c1ccccc1)CCN(C)C3` the Potency was “inactive”.
In the case of `O=C(N/N=C/C(Cl)=C/c1ccccc1)c1ccccc1F`, the Potency is reported as inconclusive: 3.55 µM [inhibitor, single point].
For `COc1ccc(C(=O)c2cc([N+](=O)[O-])ccc2N2CCN(C)CC2)cc1`, the Potency was inconclusive: 6.31 µM [inhibitor, partial curve, poor fit].
In the case of `COc1ccc(C2c3c(n(C)c4ccccc34)C(=O)N2CC(=O)Nc2c(C)cc(C)cc2C)cc1` (centres undefined), the Potency is reported as “inactive”.
With `O=C(O)c1cccc(N2C(=O)c3cc([N+](=O)[O-])cc4cc([N+](=O)[O-])cc(c34)C2=O)c1` the Potency was “inactive”.
With `CCN(CC)CCNC(=O)CNC(=O)c1nn(-c2ccc(OC)c(OC)c2)c(=O)c2ccccc12` the Potency was inconclusive: 35.5 µM [inhibitor, partial curve, poor fit].
For `COc1ccc(N2C(=O)CC(N3CCN(c4ccc(Cl)cc4)CC3)C2=O)cc1` (centres undefined), the Potency was “inactive”.
In the case of `O=C(NC(=S)Nc1ccccc1Br)C1CC1`, the Potency is reported as inconclusive: 35.5 µM [inhibitor, single point].
With `O=C1C=C(Nc2ccccc2C(=O)O)c2ccccc2C1=O` the Potency was “inactive”.
For `O=c1c2cc([N+](=O)[O-])cc([N+](=O)[O-])c2[nH]n1-c1ccccc1`, the Potency was “inactive”.
In the case of `CCNc1ccc(Br)cc(C(=O)/C=C/c2ccc(Cl)cc2Cl)c1=O`, the Potency is reported as inconclusive: 35.5 µM [inhibitor, single point].
For `CCOC(CCNC(=O)c1cc2c(=O)[nH]c3ccccc3c2s1)OCC`, the Potency was “inactive”.
With `O=C(c1cc(-c2ccc(Br)cc2)n[nH]1)N1CCN(S(=O)(=O)c2ccc(Br)s2)CC1` the Potency was inconclusive: 7.08 µM [inhibitor, partial curve, poor fit].
In the case of `CNC(=S)NNC(=O)c1sc2cc(C(F)(F)F)cnc2c1-c1ccccn1`, the Potency is reported as inconclusive: 1.26 µM [inhibitor, full curve, poor fit].
For `O=C(NC(NC(=S)Nc1cc(Cl)ccc1Cl)C(Cl)(Cl)Cl)c1ccco1` (centres undefined), the Potency was “inactive”.
In the case of `CC(C)OC(=O)c1nn2c(C(F)(F)F)cc(-c3ccco3)nc2c1Cl`, the Potency is reported as inconclusive: 17.8 µM [inhibitor, partial curve, poor fit].
For `O=C(NC(=S)Nc1ccc(Br)cn1)c1cccs1`, the Potency was inconclusive: 2.24 µM [inhibitor, full curve, poor fit].
In the case of `CC(C)N(C(=O)[C@H]1CC(CC(=O)NCCC2=CCCCC2)C(=O)N2CCc3c([nH]c4ccccc34)[C@]12C)C(C)C` (some centres undefined), the Potency is reported as inconclusive: 35.5 µM [inhibitor, single point].
In the case of `Cc1ccc2sc(N(CCCN(C)C)C(=O)c3ccc(S(=O)(=O)N(C)C)cc3)nc2c1C`, the Potency is reported as “inactive”.
For `Cc1ccccc1NC(=O)CSc1nnc2ccc(-c3cccnc3)nn12`, the Potency was inconclusive: 11.2 µM [inhibitor, partial curve].
In the case of `CCOC(=O)CCSc1nc(C)cc(C(F)(F)F)c1C#N`, the Potency is reported as inconclusive: 11.2 µM [inhibitor, partial curve, poor fit].
With `COc1cc(/C=N/NC(=O)NC23CC4CC(CC(C4)C2)C3)ccc1O` the Potency was “inactive”.
For `CCCN1CN(c2ccccc2)C(=S)N(c2ccccc2)C1`, the Potency was “inactive”.
In the case of `O=C1c2cccc3c([N+](=O)[O-])ccc(c23)C(=O)N1c1ccccn1`, the Potency is reported as active: 12.6 µM.
